Data set [1] is described as follows: Evaluation 3: straightness of pattern, black photosensitive composition. More on the design: key: Good: The case where a good linear pattern was formed was evaluated as good; Bad: the case where the distortion of the pattern image or unevenness at an end portion thereof was observed was evaluated as bad.
Data set [2] in a line: Evaluation 3: residue, black photosensitive composition. More on the design: key: Absent: The case where the residue of the coating film in the unexposed portion was absent was evaluated as absent.
A short description of data set [3]: Evaluation 3: peeling of pattern, black photosensitive composition. Set-up: key: Good: The case where the external appearance did not change and the peeling of the cured film did not occur was evaluated as good.
Where [4] appears, read: 10 mJ/cm^2, unexposed portion after development.
[5] abbreviates: 20 mJ/cm^2, unexposed portion after development.
[6] abbreviates: 40 mJ/cm^2, unexposed portion after development.
The mark [7] stands for this setting: 60 mJ/cm^2, unexposed portion after development.
Where [8] appears, read: 80 mJ/cm^2, unexposed portion after development.
Where [9] appears, read: 10 mJ/cm^2, development in 0.1% TMAH.
Setting [10] is: 20 mJ/cm^2, development in 0.1% TMAH.
[11] abbreviates: 40 mJ/cm^2, development in 0.1% TMAH.
[12] abbreviates: 60 mJ/cm^2, development in 0.1% TMAH.
[13] abbreviates: 80 mJ/cm^2, development in 0.1% TMAH.

Our source for the Straightness, Residue and Peeling values is patent US9684238B2, “Fluorene-type compound, photopolymerization initiator comprising said fluorene-type compound, and photosensitive composition containing said photopolymerization initiator” (TOKYO OHKA KOGYO CO., LTD., priority 2012, dated 2017).

On to `CCCC1(CCC)c2cc(C(=NOC(C)=O)c3ccc(C(C)(C)C)cc3)ccc2-c2ccc([N+](=O)[O-])cc21` [Compound D-2], for which the Straightness entry in data set [1] (10 mJ/cm^2), in data set [1] (20 mJ/cm^2), in data set [1] (40 mJ/cm^2), in data set [1] (60 mJ/cm^2) and in data set [1] (80 mJ/cm^2) was “Good” throughout. In addition, the Residue result in data set [2] (setting [4]), in data set [2] (setting [5]), in data set [2] (setting [6]), in data set [2] (setting [7]) and in data set [2] (setting [8]) was “Absent” in each case. Also, the Peeling result in data set [3] (setting [9]), in data set [3] (setting [10]), in data set [3] (setting [11]), in data set [3] (setting [12]) and in data set [3] (setting [13]) was “Good” in each case.

With `CCCC1(CCC)c2cc(C(C)=NOC(C)=O)ccc2-c2ccc([N+](=O)[O-])cc21` [Compound D-3], the Straightness result in data set [1] (10 mJ/cm^2), in data set [1] (20 mJ/cm^2), in data set [1] (40 mJ/cm^2), in data set [1] (60 mJ/cm^2) and in data set [1] (80 mJ/cm^2) was “Good” in each case. In addition, the Residue entry in data set [2] (setting [4]), in data set [2] (setting [5]), in data set [2] (setting [6]), in data set [2] (setting [7]) and in data set [2] (setting [8]) was “Absent” in each case. Besides, the Peeling result in data set [3] (setting [9]), in data set [3] (setting [10]), in data set [3] (setting [11]), in data set [3] (setting [12]) and in data set [3] (setting [13]) was “Good” in each case.

On to `CCCC1(CCC)c2cc(C(=O)/C(C)=N/OC(C)=O)ccc2-c2ccc(C(=O)c3ccc([N+](=O)[O-])cc3)cc21` [Compound D-9], for which the Straightness entry in data set [1] (10 mJ/cm^2), in data set [1] (20 mJ/cm^2), in data set [1] (40 mJ/cm^2), in data set [1] (60 mJ/cm^2) and in data set [1] (80 mJ/cm^2) was “Good” in each case. Further, the Residue result in data set [2] (setting [4]), in data set [2] (setting [5]), in data set [2] (setting [6]), in data set [2] (setting [7]) and in data set [2] (setting [8]) was “Absent” throughout. Also, the Peeling result in data set [3] (setting [9]), in data set [3] (setting [10]), in data set [3] (setting [11]), in data set [3] (setting [12]) and in data set [3] (setting [13]) was “Good” in each case.

With `CCCC1(CCC)c2cc(C(CCCCl)=NOC(C)=O)ccc2-c2ccc([N+](=O)[O-])cc21` [Compound D-12], the Straightness entry in data set [1] (10 mJ/cm^2), in data set [1] (20 mJ/cm^2), in data set [1] (40 mJ/cm^2), in data set [1] (60 mJ/cm^2) and in data set [1] (80 mJ/cm^2) was “Good” each time. In addition, the Residue result in data set [2] (setting [4]), in data set [2] (setting [5]), in data set [2] (setting [6]), in data set [2] (setting [7]) and in data set [2] (setting [8]) was “Absent” each time. Also, the Peeling entry in data set [3] (setting [9]), in data set [3] (setting [10]), in data set [3] (setting [11]), in data set [3] (setting [12]) and in data set [3] (setting [13]) was “Good” in each case.

On to `CCCC1(CCC)c2cc(C(CCCSc3ccc(Cl)cc3)=NOC(C)=O)ccc2-c2ccc([N+](=O)[O-])cc21` [Compound D-14], for which the Straightness entry in data set [1] (10 mJ/cm^2), in data set [1] (20 mJ/cm^2), in data set [1] (40 mJ/cm^2), in data set [1] (60 mJ/cm^2) and in data set [1] (80 mJ/cm^2) was “Good” each time. Further, the Residue entry in data set [2] (setting [4]), in data set [2] (setting [5]), in data set [2] (setting [6]), in data set [2] (setting [7]) and in data set [2] (setting [8]) was “Absent” each time. Besides, the Peeling entry in data set [3] (setting [9]), in data set [3] (setting [10]), in data set [3] (setting [11]), in data set [3] (setting [12]) and in data set [3] (setting [13]) was “Good” throughout.

On to `CCCC1(CCC)c2cc(C(=O)C(CCSc3ccc(Cl)cc3)=NOC(C)=O)ccc2-c2ccc([N+](=O)[O-])cc21` [Compound D-15], for which the Straightness entry in data set [1] (10 mJ/cm^2), in data set [1] (20 mJ/cm^2), in data set [1] (40 mJ/cm^2), in data set [1] (60 mJ/cm^2) and in data set [1] (80 mJ/cm^2) was “Good” throughout. Further, the Residue entry in data set [2] (setting [4]), in data set [2] (setting [5]), in data set [2] (setting [6]), in data set [2] (setting [7]) and in data set [2] (setting [8]) was “Absent” in each case. Moreover, the Peeling entry in data set [3] (setting [9]), in data set [3] (setting [10]), in data set [3] (setting [11]), in data set [3] (setting [12]) and in data set [3] (setting [13]) was “Good” throughout.
